From patent US20190009248A1, “ELEMENT FOR EXTRACTING ORGANIC COMPONENTS” (GERSTEL K.K., priority 2016, published 2019)

Assays:
[1] = Extraction of organic components from espresso coffee with methyl tert-butyl ether-swelled PDMS element TWISTER-011333-001-00, acetone back extraction, GC-MS; settings: coffee 5 mL; swelled with methyl tert-butyl ether (head: Working Example 11)
[2] = Extraction of organic components from beer with solvent-swelled PDMS element TWISTER-011333-001-00 (63 μL), acetone back extraction, GC-MS; settings: beer 5 mL
[3] = Working example 8, PDMS 63 μL swelled with dichloromethane
[4] = Working example 9, PDMS 63 μL swelled with diisopropyl ether
[5] = Working example 10, PDMS 63 μL swelled with cyclohexane

| Structure (SMILES) | relative peak intensity (normalized with Comparative Example 13, no solvent) [1] | relative peak intensity (normalized with Comparative Example 6, no solvent) [2, 3] | relative peak intensity (normalized with Comparative Example 6, no solvent) [2, 4] | relative peak intensity (normalized with Comparative Example 6, no solvent) [2, 5] |
| --- | --- | --- | --- | --- |
| Cc1cnc(C)cn1 [2,5-Dimethylpyrazine] | 2.0 |  |  |  |
| CC(=O)c1ccco1 [2-Acetylfuran] |  | 10 | 3.9 | 1.9 |
| CC(=O)c1ccc[nH]1 [2-Acetylpyrrole] | 9.0 | 13 | 9.2 | 1.5 |
| CCc1ncc(C)nc1C [2-Ethyl-3,5-dimethylpyrazine] | 1.6 |  |  |  |
| CCc1cnc(C)cn1 [2-Ethyl-5-methylpyrazine] | 1.5 |  |  |  |
| CC1CC(C)C(=O)C1=O (stereo not drawn) [3,5-dimethyl-1,2-cyclopentanedione] | 16 |  |  |  |
| CCC1=C(O)C(=O)CC1 [3-Ethyl-2-hydroxy-2-cyclopenten-1-one] | 14 |  |  |  |
| C=Cc1ccc(OC)c(O)c1 [4-Vinylguaiacol] | 1.7 | 2.3 | 2.6 | 1.5 |
| C=Cc1ccc(O)cc1 [4-Vinylphenol] | 4.9 | 4.8 | 7.8 | 1.4 |
| Cc1ccc(C=O)o1 [5-Methylfurfural] | 3.0 |  |  |  |
| CC(=O)OCc1ccco1 [Furfuryl acetate] | 1.7 |  |  |  |
| OCc1ccco1 [Furfuryl alcohol] | 14 | 12 | 21 | 1.8 |
| COc1ccccc1O [Guaiacol] | 4.8 | 4.6 | 9.6 | 8.1 |
| CCCCCC(=O)O [Hexanoic acid] |  | 5.3 | 6.5 | 1.9 |
| CC(C)C(=O)O [Isobutyric acid] |  | 6.8 | 25 | 2.0 |
| Cc1occc(=O)c1O [Maltol] | 4.3 |  |  |  |
| CSCCCO [Methionol] |  | 16 | 17 | 1.7 |
| CCCCCCCC(=O)O [Octanoic Acid] |  | 2.1 | 3.2 | 1.0 |
| OCCc1ccccc1 [Phenethyl alcohol] |  | 6.8 | 6.8 | 1.8 |
| Oc1ccccc1 [Phenol] | 29 |  |  |  |
| CCCCC(=O)O [Valeric acid] | 122 | 9.1 | 25 | 2.1 |
| CCCCCC1CCC(=O)O1 (stereo not drawn) [γ-Nonalactone] |  | 1.8 | 2.2 | 1.2 |
